Among the data in the supplement of paper PMC10849652 are log2 fold change values, retold here.

The chains behind the UniProt entries cited, without tags or fusion partners. Where a name states a change or a piece, a line headed by the entry shows the natural chain unless it says otherwise.
UniProt P60174, whole entry, looked up: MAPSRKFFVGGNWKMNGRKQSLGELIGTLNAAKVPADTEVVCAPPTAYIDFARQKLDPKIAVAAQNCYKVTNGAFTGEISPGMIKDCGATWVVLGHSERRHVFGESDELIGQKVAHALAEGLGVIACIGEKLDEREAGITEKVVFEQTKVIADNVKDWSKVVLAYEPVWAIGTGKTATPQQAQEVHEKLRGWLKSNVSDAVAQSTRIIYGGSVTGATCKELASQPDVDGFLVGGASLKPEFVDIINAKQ
UniProt O14763, whole entry, looked up: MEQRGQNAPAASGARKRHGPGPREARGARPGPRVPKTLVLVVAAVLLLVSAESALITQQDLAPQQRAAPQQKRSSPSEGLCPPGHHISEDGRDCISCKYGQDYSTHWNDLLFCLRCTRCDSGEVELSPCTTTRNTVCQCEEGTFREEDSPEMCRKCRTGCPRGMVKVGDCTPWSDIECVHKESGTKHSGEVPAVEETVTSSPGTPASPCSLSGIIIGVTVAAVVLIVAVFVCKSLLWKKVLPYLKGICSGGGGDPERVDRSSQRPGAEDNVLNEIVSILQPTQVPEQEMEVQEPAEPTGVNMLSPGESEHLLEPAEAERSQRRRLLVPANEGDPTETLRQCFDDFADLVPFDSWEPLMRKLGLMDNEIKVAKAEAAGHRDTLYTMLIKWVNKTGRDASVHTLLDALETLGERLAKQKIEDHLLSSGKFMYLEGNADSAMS
UniProt Q9H3N1: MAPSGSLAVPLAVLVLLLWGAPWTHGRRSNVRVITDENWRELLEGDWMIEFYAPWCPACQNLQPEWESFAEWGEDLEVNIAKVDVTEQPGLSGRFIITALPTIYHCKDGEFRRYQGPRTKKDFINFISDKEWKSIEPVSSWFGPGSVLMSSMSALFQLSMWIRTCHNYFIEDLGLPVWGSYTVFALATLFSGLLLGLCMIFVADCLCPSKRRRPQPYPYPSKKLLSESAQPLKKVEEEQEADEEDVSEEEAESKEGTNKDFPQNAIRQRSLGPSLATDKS
UniProt Q6ZXV5: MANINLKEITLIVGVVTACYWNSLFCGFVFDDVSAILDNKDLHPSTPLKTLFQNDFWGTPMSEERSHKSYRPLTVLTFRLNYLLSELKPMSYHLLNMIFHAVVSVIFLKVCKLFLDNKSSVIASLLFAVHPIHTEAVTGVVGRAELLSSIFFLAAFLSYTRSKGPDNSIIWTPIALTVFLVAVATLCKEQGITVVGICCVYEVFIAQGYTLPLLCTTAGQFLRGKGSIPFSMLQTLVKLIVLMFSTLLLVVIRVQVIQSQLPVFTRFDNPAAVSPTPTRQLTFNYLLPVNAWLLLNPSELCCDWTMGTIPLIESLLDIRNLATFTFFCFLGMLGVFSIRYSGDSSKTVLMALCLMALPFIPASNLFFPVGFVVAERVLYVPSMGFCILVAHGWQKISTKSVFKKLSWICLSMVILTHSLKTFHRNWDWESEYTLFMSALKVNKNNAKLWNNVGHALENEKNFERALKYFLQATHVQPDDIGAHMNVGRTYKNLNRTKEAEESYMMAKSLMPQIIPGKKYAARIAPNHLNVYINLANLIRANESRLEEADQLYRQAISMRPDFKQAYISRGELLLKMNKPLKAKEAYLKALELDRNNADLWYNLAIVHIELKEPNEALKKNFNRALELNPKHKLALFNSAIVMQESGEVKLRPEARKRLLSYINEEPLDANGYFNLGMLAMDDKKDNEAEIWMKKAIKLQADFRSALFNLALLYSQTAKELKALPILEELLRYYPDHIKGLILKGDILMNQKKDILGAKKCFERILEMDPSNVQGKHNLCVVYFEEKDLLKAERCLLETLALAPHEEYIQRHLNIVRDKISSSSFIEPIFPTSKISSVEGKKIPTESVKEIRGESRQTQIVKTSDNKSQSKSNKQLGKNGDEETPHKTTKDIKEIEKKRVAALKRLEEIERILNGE
UniProt Q8NDV7: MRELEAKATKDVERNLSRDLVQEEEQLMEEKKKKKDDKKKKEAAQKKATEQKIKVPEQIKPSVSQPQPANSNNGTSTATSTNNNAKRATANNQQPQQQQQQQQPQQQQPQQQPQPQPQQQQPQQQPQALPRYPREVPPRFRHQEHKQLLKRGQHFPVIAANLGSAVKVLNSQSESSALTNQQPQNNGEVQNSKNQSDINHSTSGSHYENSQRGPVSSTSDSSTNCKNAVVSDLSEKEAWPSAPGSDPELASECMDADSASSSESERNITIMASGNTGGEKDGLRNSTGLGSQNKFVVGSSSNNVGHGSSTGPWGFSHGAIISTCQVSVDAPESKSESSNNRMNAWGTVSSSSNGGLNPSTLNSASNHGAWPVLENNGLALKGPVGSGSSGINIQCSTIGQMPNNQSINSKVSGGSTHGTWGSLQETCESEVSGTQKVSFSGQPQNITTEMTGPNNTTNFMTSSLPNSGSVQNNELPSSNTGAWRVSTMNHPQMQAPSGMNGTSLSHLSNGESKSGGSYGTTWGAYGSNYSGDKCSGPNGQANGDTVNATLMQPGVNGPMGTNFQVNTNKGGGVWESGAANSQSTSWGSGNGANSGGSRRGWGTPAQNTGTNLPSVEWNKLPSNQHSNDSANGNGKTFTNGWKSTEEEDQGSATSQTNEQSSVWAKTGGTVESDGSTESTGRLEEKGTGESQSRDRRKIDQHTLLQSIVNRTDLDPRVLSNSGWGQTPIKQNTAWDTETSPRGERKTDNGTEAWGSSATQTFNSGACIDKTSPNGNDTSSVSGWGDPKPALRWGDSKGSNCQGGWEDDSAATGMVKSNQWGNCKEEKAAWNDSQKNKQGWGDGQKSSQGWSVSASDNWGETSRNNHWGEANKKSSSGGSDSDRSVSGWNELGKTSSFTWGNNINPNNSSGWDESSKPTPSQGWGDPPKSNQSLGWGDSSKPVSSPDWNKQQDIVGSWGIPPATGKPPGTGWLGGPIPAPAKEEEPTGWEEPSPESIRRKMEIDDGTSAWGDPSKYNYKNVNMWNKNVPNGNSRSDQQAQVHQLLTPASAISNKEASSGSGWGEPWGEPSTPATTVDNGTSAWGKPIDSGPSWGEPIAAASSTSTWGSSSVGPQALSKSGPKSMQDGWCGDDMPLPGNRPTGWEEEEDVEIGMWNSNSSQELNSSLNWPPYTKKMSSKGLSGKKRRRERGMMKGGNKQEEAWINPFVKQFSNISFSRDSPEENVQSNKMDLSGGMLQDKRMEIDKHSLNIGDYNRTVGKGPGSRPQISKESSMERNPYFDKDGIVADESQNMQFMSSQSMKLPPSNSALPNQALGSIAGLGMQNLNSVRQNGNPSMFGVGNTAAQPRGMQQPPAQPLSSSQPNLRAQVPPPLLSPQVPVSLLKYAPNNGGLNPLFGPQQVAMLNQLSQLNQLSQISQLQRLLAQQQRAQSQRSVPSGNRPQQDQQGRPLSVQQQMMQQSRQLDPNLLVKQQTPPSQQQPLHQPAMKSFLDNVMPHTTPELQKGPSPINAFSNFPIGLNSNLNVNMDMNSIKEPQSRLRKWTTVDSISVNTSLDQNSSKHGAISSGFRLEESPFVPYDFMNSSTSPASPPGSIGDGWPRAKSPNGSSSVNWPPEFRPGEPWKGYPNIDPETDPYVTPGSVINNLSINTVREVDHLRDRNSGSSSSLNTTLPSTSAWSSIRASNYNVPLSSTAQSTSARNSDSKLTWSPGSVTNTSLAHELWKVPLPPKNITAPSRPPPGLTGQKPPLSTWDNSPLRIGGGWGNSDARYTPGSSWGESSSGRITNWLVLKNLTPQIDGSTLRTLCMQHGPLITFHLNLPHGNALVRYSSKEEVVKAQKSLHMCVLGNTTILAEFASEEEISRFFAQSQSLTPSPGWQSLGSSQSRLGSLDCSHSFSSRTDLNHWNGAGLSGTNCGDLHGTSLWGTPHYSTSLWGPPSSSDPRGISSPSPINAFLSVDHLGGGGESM
UniProt Q13472: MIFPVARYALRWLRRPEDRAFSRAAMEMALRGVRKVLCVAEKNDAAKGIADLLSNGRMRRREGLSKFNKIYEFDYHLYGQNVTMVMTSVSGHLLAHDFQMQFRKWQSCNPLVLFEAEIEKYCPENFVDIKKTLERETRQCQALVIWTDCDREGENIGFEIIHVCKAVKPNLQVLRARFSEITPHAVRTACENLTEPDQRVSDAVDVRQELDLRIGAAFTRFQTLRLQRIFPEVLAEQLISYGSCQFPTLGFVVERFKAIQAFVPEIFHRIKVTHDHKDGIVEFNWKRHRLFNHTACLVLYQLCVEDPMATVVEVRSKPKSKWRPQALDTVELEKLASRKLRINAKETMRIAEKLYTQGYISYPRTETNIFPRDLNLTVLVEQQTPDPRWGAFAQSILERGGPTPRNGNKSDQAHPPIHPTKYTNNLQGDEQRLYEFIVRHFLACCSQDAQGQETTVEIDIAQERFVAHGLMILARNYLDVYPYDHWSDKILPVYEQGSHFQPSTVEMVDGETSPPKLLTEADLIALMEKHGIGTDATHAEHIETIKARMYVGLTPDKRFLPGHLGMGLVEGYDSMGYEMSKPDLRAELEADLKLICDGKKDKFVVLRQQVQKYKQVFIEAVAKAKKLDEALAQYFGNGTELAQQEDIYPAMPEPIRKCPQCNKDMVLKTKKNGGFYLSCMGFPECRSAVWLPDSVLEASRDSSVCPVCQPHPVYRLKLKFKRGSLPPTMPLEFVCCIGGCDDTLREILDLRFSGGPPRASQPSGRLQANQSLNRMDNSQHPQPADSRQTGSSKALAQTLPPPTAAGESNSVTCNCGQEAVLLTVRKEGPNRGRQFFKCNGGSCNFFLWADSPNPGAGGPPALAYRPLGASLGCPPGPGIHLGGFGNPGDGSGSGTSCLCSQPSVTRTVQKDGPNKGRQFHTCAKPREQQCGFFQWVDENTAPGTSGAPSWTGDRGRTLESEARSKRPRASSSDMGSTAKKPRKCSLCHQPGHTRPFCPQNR
UniProt Q92547, whole entry, looked up: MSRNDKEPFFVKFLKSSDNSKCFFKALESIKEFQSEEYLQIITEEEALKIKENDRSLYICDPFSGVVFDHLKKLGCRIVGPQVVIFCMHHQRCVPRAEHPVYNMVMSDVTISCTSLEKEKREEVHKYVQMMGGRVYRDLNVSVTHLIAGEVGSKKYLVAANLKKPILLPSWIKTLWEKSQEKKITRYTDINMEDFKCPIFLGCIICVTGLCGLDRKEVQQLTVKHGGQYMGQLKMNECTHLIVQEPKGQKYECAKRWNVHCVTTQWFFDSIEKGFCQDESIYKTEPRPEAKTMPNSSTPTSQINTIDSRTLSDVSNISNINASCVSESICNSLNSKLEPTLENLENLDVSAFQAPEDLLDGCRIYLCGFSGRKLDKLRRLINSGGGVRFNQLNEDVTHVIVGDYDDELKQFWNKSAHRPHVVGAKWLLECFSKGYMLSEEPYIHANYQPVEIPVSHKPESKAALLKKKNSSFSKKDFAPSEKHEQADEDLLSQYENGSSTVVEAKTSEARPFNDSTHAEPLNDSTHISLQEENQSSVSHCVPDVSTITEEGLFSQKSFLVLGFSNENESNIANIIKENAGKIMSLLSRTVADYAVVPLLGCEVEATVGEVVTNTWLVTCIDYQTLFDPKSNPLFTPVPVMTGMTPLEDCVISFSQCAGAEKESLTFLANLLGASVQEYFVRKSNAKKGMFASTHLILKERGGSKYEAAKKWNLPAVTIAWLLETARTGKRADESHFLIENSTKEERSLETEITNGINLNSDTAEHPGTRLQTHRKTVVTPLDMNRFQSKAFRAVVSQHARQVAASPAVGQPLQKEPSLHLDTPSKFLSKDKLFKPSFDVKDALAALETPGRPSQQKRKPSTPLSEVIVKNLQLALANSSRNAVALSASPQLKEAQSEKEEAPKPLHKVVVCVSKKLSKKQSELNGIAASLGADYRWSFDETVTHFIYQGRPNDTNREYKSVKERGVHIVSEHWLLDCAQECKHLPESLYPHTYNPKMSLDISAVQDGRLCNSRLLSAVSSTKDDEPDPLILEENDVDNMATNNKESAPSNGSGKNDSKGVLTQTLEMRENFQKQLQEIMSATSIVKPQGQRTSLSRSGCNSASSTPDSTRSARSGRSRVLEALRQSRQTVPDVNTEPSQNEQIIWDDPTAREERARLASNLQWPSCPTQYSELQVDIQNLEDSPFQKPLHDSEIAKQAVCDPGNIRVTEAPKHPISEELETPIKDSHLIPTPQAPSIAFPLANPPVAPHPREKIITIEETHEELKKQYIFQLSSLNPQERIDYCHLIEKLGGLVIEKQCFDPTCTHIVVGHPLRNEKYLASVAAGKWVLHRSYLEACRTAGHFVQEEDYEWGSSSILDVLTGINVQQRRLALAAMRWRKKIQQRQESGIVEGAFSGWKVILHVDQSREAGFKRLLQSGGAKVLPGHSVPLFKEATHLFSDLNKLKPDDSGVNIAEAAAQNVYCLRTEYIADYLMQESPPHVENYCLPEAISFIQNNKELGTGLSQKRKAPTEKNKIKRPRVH

This is one part of the list.

Common to all, as to test: log2 fold change, soluble protein after heating vs DMSO (PISA); higher = thermal stabilisation; K562 lysate, 10 uM; active = over 0.2 and 3.5 SD of the protein, either way, in both replicates (recomputed)
Compound in assay [1]: NCC(=O)Nc1ccc(-n2nc(C(F)(F)F)cc2-c2ccc3c(ccc4ccccc43)c2)cc1
The procedure, abridged:
(§1)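 Soluble protein was defined as the supernatant remaining after 21,000xg for 90 min, following pooling of heated aliquots and adjustment to 0.5% NP-40 at 4°C. Before that, crude K562 extract at 1 mg/mL protein in PBS pH 7.4 with 1 mM MgCl2 was treated with 10 μM compound for 30 min and heated for 3 min across 48°C-58°C. Quantification used TMTpro 16plex LC-MS/MS with channel sums equalised, and values are log-two fold changes in thermal stability relative to solvent controls from duplicates.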

Compound in another assay: O=C(CCCCCCC(=O)Nc1ccccc1)NO [vorinostat]
The gist of the method: as §1

Compound in another assay: O=C(O)c1ccc2c(c1)nc(Nc1cccc(Cl)c1)c1ccncc12 [silmitasertib]
The gist of the method: as §1

Compound in assay [2]: O=C1NC(=O)C(c2cnc3ccccn23)=C1c1cn2c3c(cc(F)cc13)CN(C(=O)N1CCCCC1)CC2
The procedure, abridged:
as §1

Compound in a further assay: c1cn2cc(-c3ccc4cn[nH]c4c3)nc(Nc3ccc(N4CCOCC4)cc3)c2n1 [entospletinib]
The procedure, abridged: as §1

In the case of TPI1 (UniProt P60174), the log2 fold change in assay [1] was inactive: 0.032; with vorinostat, inactive: 0.124; with silmitasertib it was inactive: -0.014; in assay [2], inactive: 0.024; in the assay with entospletinib, inactive: 0.073.
The corresponding values for TNFRSF10B (UniProt O14763) are inactive: 0.046, inactive: 0.134, inactive: 0.032, inactive: 0.007 and inactive: 0.043.
The corresponding values for TMX1 (UniProt Q9H3N1) are inactive: 0.024, inactive: 0.117, inactive: 0.008, inactive: -0.032 and inactive: 0.022.
The corresponding values for TNKS1BP1 (UniProt Q9C0C2) are inactive: 0.031, inactive: -0.018, inactive: 0.009, inactive: -0.004 and inactive: -0.009.
TMTC3 (UniProt Q6ZXV5): the log2 fold change was inactive: 0.017 in assay [1]; inactive: 0.107 with vorinostat; inactive: 0.005 in the assay with silmitasertib; inactive: -0.053 in assay [2]; inactive: 0.023 with entospletinib.
The corresponding values for TNRC6A (UniProt Q8NDV7) are inactive: 0.013, inactive: 0.165, inactive: 0.001, inactive: -0.058 and inactive: 0.022.
The like results for TOP3A (UniProt Q13472) were, in that order, inactive: 0.024, inactive: -0.173, inactive: 0.15, inactive: -0.035 and inactive: 0.052.
The corresponding values for TMEM62 (UniProt Q0P6H9) are inactive: 0.042, inactive: 0.048, inactive: 0.008, inactive: 0.005 and inactive: 0.019.
In the case of TOPBP1 (UniProt Q92547), the log2 fold change in assay [1] was inactive: 0.032; with vorinostat it was active: -0.387; with silmitasertib, inactive: 0.019; in assay [2] it was inactive: -0.074; with entospletinib, inactive: 0.028.
